This passage reports binding results from publication PMC8224564.

Protein sequences, listed by entry. Tags and fused reporters are not part of them. Lines headed by an entry give the natural chain unless they say otherwise; changes in a name come on top. Residues count along the entry.
UniProt Q6U7R4: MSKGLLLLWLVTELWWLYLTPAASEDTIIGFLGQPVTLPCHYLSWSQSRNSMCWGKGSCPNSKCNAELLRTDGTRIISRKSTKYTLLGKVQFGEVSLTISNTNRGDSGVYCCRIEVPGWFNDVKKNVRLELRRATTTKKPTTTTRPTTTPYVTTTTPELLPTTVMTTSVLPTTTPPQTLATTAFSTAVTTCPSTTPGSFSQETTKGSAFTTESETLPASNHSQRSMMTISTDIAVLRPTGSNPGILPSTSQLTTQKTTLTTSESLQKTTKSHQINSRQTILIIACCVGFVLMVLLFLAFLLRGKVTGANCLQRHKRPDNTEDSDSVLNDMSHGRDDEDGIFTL
UniProt P29317, residues 24-976: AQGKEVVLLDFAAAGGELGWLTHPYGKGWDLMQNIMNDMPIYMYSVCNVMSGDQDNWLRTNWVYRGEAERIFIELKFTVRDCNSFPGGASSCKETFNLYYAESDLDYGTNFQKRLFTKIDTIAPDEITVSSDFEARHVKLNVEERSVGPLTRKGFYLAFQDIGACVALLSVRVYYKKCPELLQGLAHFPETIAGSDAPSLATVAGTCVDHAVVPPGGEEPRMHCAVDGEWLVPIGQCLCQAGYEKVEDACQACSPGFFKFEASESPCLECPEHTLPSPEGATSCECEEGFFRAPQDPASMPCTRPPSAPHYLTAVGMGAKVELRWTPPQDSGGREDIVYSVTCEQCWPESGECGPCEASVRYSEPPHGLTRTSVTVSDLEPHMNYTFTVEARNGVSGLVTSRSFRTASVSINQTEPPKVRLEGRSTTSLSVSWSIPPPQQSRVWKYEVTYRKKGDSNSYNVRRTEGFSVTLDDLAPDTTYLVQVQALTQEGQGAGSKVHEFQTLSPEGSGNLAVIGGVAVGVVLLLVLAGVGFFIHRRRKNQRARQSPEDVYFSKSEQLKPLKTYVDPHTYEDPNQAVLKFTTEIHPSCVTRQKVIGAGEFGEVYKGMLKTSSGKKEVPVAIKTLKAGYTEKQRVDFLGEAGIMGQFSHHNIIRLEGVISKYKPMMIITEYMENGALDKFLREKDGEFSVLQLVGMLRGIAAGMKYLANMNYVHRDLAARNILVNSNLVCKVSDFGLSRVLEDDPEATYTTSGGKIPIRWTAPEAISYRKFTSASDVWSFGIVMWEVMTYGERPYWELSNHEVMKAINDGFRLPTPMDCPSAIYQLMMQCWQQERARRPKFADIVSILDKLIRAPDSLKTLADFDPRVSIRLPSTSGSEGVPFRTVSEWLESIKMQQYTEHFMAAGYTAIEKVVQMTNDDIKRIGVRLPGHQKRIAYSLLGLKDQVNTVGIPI

The assay addresses Tim-4^ΔIgV (UniProt Q6U7R4). Kind of assay: co-IP; 293T cells co-transfected, lysates incubated with anti-HA antibody-conjugated agarose beads, 4 °C, 2 h; immunoblot. A general note: In western blotting, separated proteins are transferred to a membrane and probed.

No constants are given. Whether binding was seen depends on the method and setting. In cells and extracts the contact can be indirect.

Take “EphA2 (from UniProt P29317 24-976) (receptor)”: the binding result is “no binding”.
